Results are given in words; binding and its absence hold for the method and conditions named. For part of these data: In cells and extracts the contact can be indirect. Some binding calls cover weakened binding; strength is not graded here. For part of these data: Tags and fused reporters may be left off the sequences shown.

Sequences of proteins named here, by UniProt entry; tags and fusion partners are left off.
UniProt P50750: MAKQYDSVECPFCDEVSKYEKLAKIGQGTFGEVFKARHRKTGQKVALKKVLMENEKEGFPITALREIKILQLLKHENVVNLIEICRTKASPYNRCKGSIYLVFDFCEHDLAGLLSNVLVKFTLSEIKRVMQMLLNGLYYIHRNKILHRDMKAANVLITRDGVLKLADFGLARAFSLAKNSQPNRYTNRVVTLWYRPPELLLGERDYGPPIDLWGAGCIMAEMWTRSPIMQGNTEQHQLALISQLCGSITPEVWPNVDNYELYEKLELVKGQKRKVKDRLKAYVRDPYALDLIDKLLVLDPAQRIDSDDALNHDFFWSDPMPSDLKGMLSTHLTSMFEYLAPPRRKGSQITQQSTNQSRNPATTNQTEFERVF

We go through five molecules from PMC12374588.

Test [1] has as its target T1, CREPT, endogenous (human (endogenous in SK-LU-1, H441, HEK-293T)) (UniProt Q9NQG5).
T1 sequence: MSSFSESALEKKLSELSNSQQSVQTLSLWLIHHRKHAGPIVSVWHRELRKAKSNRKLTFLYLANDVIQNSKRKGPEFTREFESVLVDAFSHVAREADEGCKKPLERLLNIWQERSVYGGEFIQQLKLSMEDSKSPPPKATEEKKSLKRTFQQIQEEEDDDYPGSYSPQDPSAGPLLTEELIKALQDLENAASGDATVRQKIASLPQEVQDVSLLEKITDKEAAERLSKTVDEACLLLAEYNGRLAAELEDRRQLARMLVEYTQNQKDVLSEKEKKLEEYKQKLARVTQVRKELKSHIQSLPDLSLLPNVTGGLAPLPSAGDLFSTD
The test can be described thus: co-IP; endogenous proteins in SK-LU-1 and H441 lysates; also after mitogen stimulation or ERK inhibition.

The target in test [2] is T2, CREPT purified from E. coli (UniProt Q9NQG5).
T2 sequence: T1 sequence
The test can be described thus: co-IP; in vitro binding assay: purified proteins incubated together at 4 °C overnight, then immunoprecipitated with anti-HA or anti-CREPT antibody; both purified.

The target in test [3] is T3, HA-CREPT (cell cycle-related and expression elevated protein in tumor) (UniProt Q9NQG5).
T3 sequence: T1 sequence
The description is as above.

Test [4] has as its target Flag-CDK9 (cyclin-dependent kinase 9) (UniProt P50750). The test can be described thus: co-IP; HEK-293T co-transfected with HA-CREPT and Flag-CDK9; IP with anti-Flag (M2), blot anti-HA and anti-FLAG.
For test [5] the target is unchanged. The test can be described thus: co-IP; Myc-tagged CREPT, CID or CCT with Flag-CDK9; blots with anti-Myc (9E10) and anti-Flag (M2); cells not given.

Regarding “CDK9, endogenous (from UniProt P50750 1-372) (enzyme)”, the binding result in test [1] was “binds”. In the case of “Flag-CDK9 (cyclin-dependent kinase 9) (from UniProt P50750 1-372) (enzyme)”, the binding entry in test [2] and in test [3] was “binds” throughout.

B1: HA-CREPT (cell cycle-related and expression elevated protein in tumor) (protein, UniProt Q9NQG5 1-326)
chain: T1 sequence
As to B1, the binding entry in test [4] is “binds”.

B2: Myc-tagged CREPT (protein, UniProt Q9NQG5 1-326)
chain: T1 sequence
For the molecule B2, the binding result in test [5] is given as “binds”.

B3: Myc-tagged CID domain of CREPT (domain or fragment, UniProt Q9NQG5 2-133)
chain: SSFSESALEKKLSELSNSQQSVQTLSLWLIHHRKHAGPIVSVWHRELRKAKSNRKLTFLYLANDVIQNSKRKGPEFTREFESVLVDAFSHVAREADEGCKKPLERLLNIWQERSVYGGEFIQQLKLSMEDSK
Turning to B3, the binding entry in test [5] is listed as “binds”.
